Measured values taken from PubChem BioAssay AID651768 (National Center for Advancing Translational Sciences (NCATS), 2012).
The campaign covered roughly 360,000 compounds. About 1,700 (0.47%) were called active. Inconclusive results, whose numbers are uncertain, are shown with a selection of clear calls. The call rests on the fitted dose curve; in most records, active means well fitted inhibition curve with a large enough effect; inconclusive means small, poorly fitted or top-dose-only effect; inactive means no such curve, though single readings can be large or run the other way. Where the call is inconclusive, the potency comes from a doubtful curve fit.

Chains of the proteins cited; added tags and fusions are not shown.
UniProt Q14191, whole entry, looked up: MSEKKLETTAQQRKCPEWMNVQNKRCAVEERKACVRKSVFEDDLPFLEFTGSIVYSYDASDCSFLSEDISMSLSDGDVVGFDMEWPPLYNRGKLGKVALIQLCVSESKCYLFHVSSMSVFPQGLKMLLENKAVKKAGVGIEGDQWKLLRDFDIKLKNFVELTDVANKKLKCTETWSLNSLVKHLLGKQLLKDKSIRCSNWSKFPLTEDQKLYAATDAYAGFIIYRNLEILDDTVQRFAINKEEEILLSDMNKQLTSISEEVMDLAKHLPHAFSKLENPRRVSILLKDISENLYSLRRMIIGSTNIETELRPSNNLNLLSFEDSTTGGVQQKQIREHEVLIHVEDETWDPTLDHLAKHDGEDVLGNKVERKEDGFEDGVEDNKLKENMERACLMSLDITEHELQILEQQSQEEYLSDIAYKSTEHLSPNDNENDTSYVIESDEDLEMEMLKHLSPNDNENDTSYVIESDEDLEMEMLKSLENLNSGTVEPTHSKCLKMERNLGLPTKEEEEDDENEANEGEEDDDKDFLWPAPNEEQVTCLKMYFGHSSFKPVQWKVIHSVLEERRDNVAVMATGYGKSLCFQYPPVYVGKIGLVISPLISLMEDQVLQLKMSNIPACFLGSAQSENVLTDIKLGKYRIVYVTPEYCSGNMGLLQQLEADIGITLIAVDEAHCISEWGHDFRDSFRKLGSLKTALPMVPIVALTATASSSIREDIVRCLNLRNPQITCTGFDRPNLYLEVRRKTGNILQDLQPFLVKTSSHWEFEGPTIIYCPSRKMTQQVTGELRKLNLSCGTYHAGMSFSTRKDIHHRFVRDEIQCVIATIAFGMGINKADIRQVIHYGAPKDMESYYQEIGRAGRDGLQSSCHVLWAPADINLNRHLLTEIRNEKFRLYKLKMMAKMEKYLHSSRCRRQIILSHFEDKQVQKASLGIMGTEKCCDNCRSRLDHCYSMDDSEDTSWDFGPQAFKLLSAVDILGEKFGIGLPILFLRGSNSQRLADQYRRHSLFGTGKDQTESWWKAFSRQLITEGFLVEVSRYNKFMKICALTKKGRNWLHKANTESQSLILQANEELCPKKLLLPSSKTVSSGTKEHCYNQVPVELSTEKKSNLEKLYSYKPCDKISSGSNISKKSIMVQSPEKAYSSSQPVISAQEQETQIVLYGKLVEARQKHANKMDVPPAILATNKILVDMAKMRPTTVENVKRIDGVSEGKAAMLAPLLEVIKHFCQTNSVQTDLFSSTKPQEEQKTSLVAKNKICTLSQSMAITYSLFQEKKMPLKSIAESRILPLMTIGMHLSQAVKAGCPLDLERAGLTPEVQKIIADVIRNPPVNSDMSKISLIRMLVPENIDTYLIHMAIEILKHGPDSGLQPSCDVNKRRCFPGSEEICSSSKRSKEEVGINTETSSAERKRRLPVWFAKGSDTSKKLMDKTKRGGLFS

Biological target: Bifunctional 3'-5' exonuclease/ATP-dependent helicase WRN (Homo sapiens) (UniProt Q14191)
Assay: qHTS for Inhibitors of WRN Helicase; further: nearly all actives have a fitted effect of over 55% in size
Conditions: WRN helicase unwinding, fluorescent forked duplex, kinetic; activity change, negative = inhibition: at 114 µM (top of the series) unless noted
From the text: Inhibition of DNA repair is proposed as a strategy for combating cancer. Synthetic lethality is an approach that exploits preexisting DNA repair deficiencies in certain tumors to develop inhibitors of DNA repair pathways that compensate for the tumor-associated DNA repair deficiency. Because helicases play critical roles in the DNA damage response and in DNA repair, particularly in actively dividing and replicating cells, characterization of synthetic lethal relationships of DNA helicases may be of value in developing improved anticancer treatment strategies; moreover, small molecules that specifically target a given DNA helicase may be useful for understanding its role in cellular nucleic acid metabolism. The goal of this project is to identify small molecule, non-covalent chemical inhibitors of the Werner syndrome (WS) helicase (WRN), which plays an important role in cell proliferation, the replication stress response, and DNA repair. […] The WRN gene product that is defective in the chromosomal instability disorder has DNA helicase and exonuclease activities and interacts with a number of nuclear proteins to maintain genomic stability. We will employ an optimized high-throughput screening assay that utilizes a fluorescence intensity modulation scheme with a fluorophore and quencher positioned near one another within a duplex deoxyoligonucleotide that contains a single forked structure. After a high-throughput screen of the ~350,000-member Molecular Libraries Small Molecule Repository (MLSMR) collection, followed by data analysis and hit selection, a panel of confirmatory, as well as secondary and ternary, assays will be employed to identify high-confidence WRN inhibitors. Structure-activity relationships will be investigated for the top candidate inhibitor series through medchem expansion. These are the results of the primary screening campaign against the MLSMR. NIH Chemical Genomics Center [NCGC] NIH Molecular Libraries Probe Centers Network [MLPCN] MLPCN Grant: MH096530 Assay Submitter (PI): Robert Brosh, National Institute of Aging
Three muL of reagents (buffer in columns 3 and 4 as negative controls; WRN at 20 nM final concentration in columns 1 and 2 as positive controls; columns 5-48 as test reactions) will be dispensed into a 1536-well Greiner black plate via solenoid-valve based nanoliter dispensers. Compounds (23 nL each in columns 5-48) and control (23 nL each in column 2 as dose-response) will be transferred via a Kalypsys pintool equipped with a 1536-pin array. Plates will be incubated for 15 min at room temperature, and then 1 µL of substrate (100 nM forked duplex oligonucleotide and 2 mM ATP final concentrations) will be added to start reaction, and plate will be transferred into a ViewLux high-throughput CCD imager where reaction progress is measured in kinetic mode using standard red-fluorescence optics (excitation filter 525 nm, emission filter 598 nm).
On the % scale 0 is the no-effect control and ±100 the full control effect; potency means the concentration at half of the fitted maximal effect.

| SMILES | Potency | activity change, negative = inhibition |
| --- | --- | --- |
| O=Cc1cn(CC(=O)N2CCCc3ccccc32)c2ccccc12 | inconclusive: 79.4 µM [inhibitor, single point] | – |
| CSc1nc(SCC(N)=O)c2c3c(sc2n1)CN(C)CC3 | inconclusive: 89.1 µM [inhibitor, partial curve, poor fit] | – |
| COc1ccc(CCN2CC(C(=O)NCCc3cn[nH]c3)CCC2=O)cc1 (stereo unspecified) | inconclusive: 89.1 µM [inhibitor, single point] | – |
| CC(C1SC(=S)NC1=O)C1SC(=S)NC1=O (stereo unspecified) | inconclusive: 2.38 µM [inhibitor, partial curve] | – |
| Cc1cc(C)nc(NC(=O)CSc2nn(-c3ccccc3)c(=S)s2)n1 | inconclusive: 89.1 µM [inhibitor, single point] | – |
| Cc1cccc(Oc2ncnc3onc(C)c23)c1C | inconclusive: 89.1 µM [inhibitor, single point] | – |
| COc1cc(/C=C2\CCc3c2nc2ccccc2c3C(=O)O)cc(OC)c1OC | active: 31.6 µM | – |
| CCOc1cc(/C=C2\COc3ccccc3C2=O)cc(Br)c1OCC(=O)N(C)C | – | inactive: -26.3% |
| O=C(O)c1ccc(COc2ccccc2/C=C2\NC(=O)N(Cc3ccccc3)C2=O)cc1 | – | inactive: -13.9% |
| COc1ccc(CC(=O)NCC2CCCN(Cc3ccc(F)c(OC)c3)C2)cc1 (stereo unspecified) | – | inactive: 2.21% |
| NC(=O)c1c(NC(=O)CSc2nnc(-c3ccco3)n2N)sc2c1CCCC2 | active: 50.1 µM | – |
| Cc1nnc(N2C(=O)c3oc4ccccc4c(=O)c3C2c2ccco2)s1 (stereo unspecified) | inconclusive: 70.8 µM [inhibitor, partial curve] | – |
| Cc1ccc([C@H]2C(C(=O)O)=CC[C@@H](c3ccc(Cl)cc3)N2S(=O)(=O)c2ccccc2C)cc1 | – | inactive: -6.2% |
| N#C/C(=C\c1ccc(N2CCOCC2)c([N+](=O)[O-])c1)c1nc2ccccc2[nH]1 | – | inactive: -34.4% |
| CC(NC(=O)/C(=C/c1cccc([N+](=O)[O-])c1)NC(=O)c1ccco1)C(=O)O (stereo unspecified) | – | inactive: -15.9% |
| N#CCSc1nc2ccccc2c(=O)n1C1CCCCC1 | inconclusive: 89.1 µM [inhibitor, single point] | – |
| C=C1CC2(OC1=O)c1ccccc1CCc1ccccc12 | inconclusive: 12.6 µM [inhibitor, partial curve, poor fit] | – |
| O=C(O)c1ccccc1CSc1nc2ccccc2s1 | inconclusive: 89.1 µM [inhibitor, single point] | – |
| CCCCC1=CC2=CC(=O)C(C)(OC(=O)C3CCCC3)C(=O)C2=CO1 (stereo unspecified) | inconclusive: 23.8 µM [inhibitor, partial curve] | – |
| CC1=NN(c2ccc(N)cc2)C(=O)C1 | active: 44.7 µM | – |
| COc1ccc(Br)c(C(=O)NNC(=O)c2ccc(NS(=O)(=O)c3cccs3)cc2)c1 | inconclusive: 31.6 µM [inhibitor, full curve, poor fit] | – |
| CCOC(=O)c1cccc(Nc2nc(-c3cccnc3)nc3ccccc23)c1 | inconclusive: 89.1 µM [inhibitor, single point] | – |
| COc1ccc(-c2ccc(/C=C3/C(=N)N4C(C)=CSC4=NC3=O)o2)c([N+](=O)[O-])c1 | inconclusive: 50.1 µM [inhibitor, partial curve] | – |
| CCn1nnc2sc3c(c2c1=O)CCC(C)C3 (stereo unspecified) | – | inactive: -0.172% |

| SMILES | Potency | activity change, negative = inhibition |
| --- | --- | --- |
| Cc1ccc(/C=C2\CCC3=C2OC(N)=C(C#N)C3c2ccc(C)cc2)cc1 (stereo unspecified) | inconclusive: 44.7 µM [inhibitor, partial curve] | – |
| CCN(c1ccccc1)S(=O)(=O)c1cc(C(=O)NCC(c2ccco2)N2CCCCC2)ccc1C (stereo unspecified) | inconclusive: 44.7 µM [inhibitor, full curve, poor fit] | – |
| O=C(Nc1ccccc1)Nc1cc([N+](=O)[O-])ccc1F | inconclusive: 11.2 µM [inhibitor, partial curve] | – |
| CCc1ccc(/C=C2/SC(=S)N(CCCC(=O)Nc3cccc(C(=O)O)c3)C2=O)cc1 | – | inactive: -8.19% |
| CCOc1ccc(/C=C/C(=O)c2c(O)cc(C)oc2=O)cc1 | – | inactive: -13.4% |
| COc1ccc(-n2c(O)c(/C=N/NS(=O)(=O)c3cccc([N+](=O)[O-])c3)c3ccccc3c2=O)cc1OC | active: 14.1 µM | – |
| Cc1noc(C)c1C(=O)N1CCC(C(=O)c2ccccc2)CC1 | inconclusive: 10 µM [inhibitor, full curve, poor fit] | – |
| Cc1ccc(S(=O)(=O)n2nc(C)c(Br)c2C)c(C)c1C | – | inactive: -7.12% |
| O=C(CSC(=S)N1CCOCC1)c1cc(Br)cc(Br)c1O | active: 56.2 µM | – |
| Cc1ccc(Cc2cnc(N3C(=N)SC(c4ccccc4)C3=O)s2)cc1 (stereo unspecified) | inconclusive: 50.1 µM [inhibitor, partial curve] | – |
| COc1ccc(C=C2SC(=S)NC2=O)c(OC)c1OC | inconclusive: 14.1 µM [inhibitor, full curve, poor fit] | – |
| N#Cc1c2c(c(-c3ccco3)[nH]c1=O)CCCC2 | inconclusive: 56.2 µM [inhibitor, partial curve] | – |
| CCOC(=O)CSc1nc2cc(OC)ccc2cc1C#N | – | inactive: 5.14% |
| CN(C)N1C(N)=C(C#N)C(c2cccs2)C2=C1CCCC2=O (stereo unspecified) | – | inactive: 6.86% [at 57.1 µM] |
| O=C(O)c1ccc2c(c1)C(=O)/C(=C\c1ccco1)C2=O | active: 25.1 µM | – |
| O=C(c1ccco1)N1CCN(S(=O)(=O)c2ccccc2[N+](=O)[O-])CC1 | – | inactive: 1.93% [at 57.1 µM] |
| COc1ccc(Br)cc1/C=c1\sc2nc(-c3ccco3)nn2c1=O | active: 35.5 µM | – |
| CC(=O)Nc1ccc(S(=O)(=O)N(Cc2ccccc2)c2ccccc2)cc1 | inconclusive: 39.8 µM [inhibitor, single point] | – |
| O=C(NCCC1CCCCN1S(=O)(=O)c1ccccc1)C(=O)NCc1ccccn1 (stereo unspecified) | inconclusive: 25.1 µM [inhibitor, full curve] | – |
| O=C(c1ccccc1Br)N(Cc1ccccc1)c1ccccc1 | inconclusive: 89.1 µM [inhibitor, single point] | – |
| Oc1c(Br)cc(Br)cc1/C=N/c1nc2c(s1)CCCC2 | inconclusive: 56.2 µM [inhibitor, partial curve] | – |
| Nc1nc(O)c(Sc2ccccc2[N+](=O)[O-])c(=O)[nH]1 | – | inactive: -3.1% |
| COc1cc(Br)cc(C=Nc2cccc(C(F)(F)F)c2)c1O | inconclusive: 50.1 µM [inhibitor, partial curve] | – |
| O=C1/C(=C/c2ccco2)N=C(N2CCCCC2)N1c1ccccc1 | inconclusive: 10 µM [inhibitor, partial curve] | – |

| SMILES | Potency | activity change, negative = inhibition |
| --- | --- | --- |
| Cc1sc(NC(=O)c2ccco2)c(C(=O)c2ccc(Cl)cc2)c1C | inconclusive: 50.1 µM [inhibitor, partial curve] | – |
| CC(NC(=O)/C=C/c1ccco1)c1nc2ccccc2n1Cc1cccc(Cl)c1 (stereo unspecified) | inconclusive: 28.2 µM [inhibitor, single point] | – |
| Cc1ccnc(NS(=O)(=O)c2ccc(NC(=O)c3cc(-c4ccccc4)nc4ccccc34)cc2)n1 | inconclusive: 39.8 µM [inhibitor, single point] | – |
| COc1ccccc1-n1c(SCC(=O)Nc2ccc(Br)cc2)nc(O)cc1=O | inconclusive: 8.91 µM [inhibitor, full curve] | – |
| C#CCOCCOCCOCCNc1nc(N2CCN(C(=O)CCCCCCCCCCNC(=O)Cn3cc(CCCCCN)nn3)CC2)nc(N2CCN(C(=O)CCCCCCCCCCNC(=O)Cn3cc(CCCCCN)nn3)CC2)n1 | active: 79.4 µM | – |
| O=C(OCc1ccc([N+](=O)[O-])cc1)C1CC(=O)N(CCc2ccccc2)C1 (stereo unspecified) | – | inactive: -17.7% |
| CCC/C=C1/CCCOC(C(=O)NCc2ccc(C)o2)(C(F)(F)F)C1 (stereo unspecified) | inconclusive: 56.2 µM [inhibitor, partial curve] | – |
| COc1ccc(/C=C2/CCC(CN3CCOCC3)C2=O)cc1 (stereo unspecified) | active: 14.1 µM | – |
| CCCn1c(N)c(C(=O)CSc2nc(C)nc3sc(C)c(C)c23)c(=O)[nH]c1=O | inconclusive: 17.8 µM [inhibitor, full curve, poor fit] | – |
| NC(=O)c1ccsc1NC(=O)COC(=O)c1cnccn1 | inconclusive: 100 µM [inhibitor, partial curve] | – |
| O=C(N/N=C/c1coc2ccccc2c1=O)c1cc(Br)ccc1O | inconclusive: 89.1 µM [inhibitor, single point] | – |
| O=C(NNC(=O)c1cc2ccccc2o1)c1ccc(F)cc1 | inconclusive: 20 µM [inhibitor, full curve] | – |
| N#Cc1sc2nc(-c3ccccc3)cc(-c3ccco3)c2c1N | active: 35.5 µM | – |
| CCOc1ccc(C(=O)Nc2cc(C)ccn2)cc1 | inconclusive: 89.1 µM [inhibitor, single point] | – |
| CCOc1ccc(C(=O)Nc2ccc(-c3nc4ccccc4[nH]3)cc2)cc1[N+](=O)[O-] | inconclusive: 56.2 µM [inhibitor, partial curve] | – |
| COc1ccc(-c2cc(-c3ccc(O)cc3)nc(N)c2C#N)cc1 | – | inactive: -4.09% |
| Oc1c(Br)cc(C=Nc2ccc3nc(-c4ccccc4)[nH]c3c2)c(O)c1Br | inconclusive: 35.5 µM [inhibitor, partial curve] | – |
| CCN(CCn1cccn1)C(=O)c1ccc(OC2CCN(C(=O)CCOC)CC2)cc1 | – | inactive: -8.97% |
| COC(=O)C(O)(CC(=O)c1ccc(OC)cc1)C(F)(F)F (stereo unspecified) | – | inactive: 1.97% |
| COc1ccc2c(=O)cc(-c3ccccc3F)oc2c1 | inconclusive: 39.8 µM [inhibitor, single point] | – |
| O=C(c1ccccc1Nc1ccc(SC(F)F)cc1)N1CCCCC1 | – | inactive: 2.42% |
| O=C(Nc1cc(S(=O)(=O)N2CCOCC2)ccc1N1CCCC1)c1ccc2c(c1)S(=O)(=O)c1ccccc1C2=O | – | inactive: -26.6% |
| Cc1c(C(=O)C(=O)N2c3ccccc3CC2C)c2ccccc2n1C (stereo unspecified) | inconclusive: 89.1 µM [inhibitor, single point] | – |

Another view of 12 compounds above:
SMILES	Potency	activity change, negative = inhibition
Cc1sc(NC(=O)c2ccco2)c(C(=O)c2ccc(Cl)cc2)c1C	inconclusive: 50.1 µM [inhibitor, partial curve]	–
CC(NC(=O)/C=C/c1ccco1)c1nc2ccccc2n1Cc1cccc(Cl)c1 (stereo unspecified)	inconclusive: 28.2 µM [inhibitor, single point]	–
COc1ccccc1-n1c(SCC(=O)Nc2ccc(Br)cc2)nc(O)cc1=O	inconclusive: 8.91 µM [inhibitor, full curve]	–
COc1ccc(/C=C2/CCC(CN3CCOCC3)C2=O)cc1 (stereo unspecified)	active: 14.1 µM	–
CCCn1c(N)c(C(=O)CSc2nc(C)nc3sc(C)c(C)c23)c(=O)[nH]c1=O	inconclusive: 17.8 µM [inhibitor, full curve, poor fit]	–
O=C(N/N=C/c1coc2ccccc2c1=O)c1cc(Br)ccc1O	inconclusive: 89.1 µM [inhibitor, single point]	–
CCOc1ccc(C(=O)Nc2ccc(-c3nc4ccccc4[nH]3)cc2)cc1[N+](=O)[O-]	inconclusive: 56.2 µM [inhibitor, partial curve]	–
COc1ccc(-c2cc(-c3ccc(O)cc3)nc(N)c2C#N)cc1	–	inactive: -4.09%
COC(=O)C(O)(CC(=O)c1ccc(OC)cc1)C(F)(F)F (stereo unspecified)	–	inactive: 1.97%
O=C(c1ccccc1Nc1ccc(SC(F)F)cc1)N1CCCCC1	–	inactive: 2.42%
O=C(Nc1cc(S(=O)(=O)N2CCOCC2)ccc1N1CCCC1)c1ccc2c(c1)S(=O)(=O)c1ccccc1C2=O	–	inactive: -26.6%
Cc1c(C(=O)C(=O)N2c3ccccc3CC2C)c2ccccc2n1C (stereo unspecified)	inconclusive: 89.1 µM [inhibitor, single point]	–
